{"source": "patent US20120020891A1", "about": "“METABOLITES FOR ORAL HEALTH AND USES THEREOF” (Colgate-Palmolive Company, priority 2009, published 2012)", "experiment": "Metabolite expression profiling (GC/MS and LC/MS) of gingival crevicular fluid from healthy, gingivitis and periodontitis sites", "parameters": "species or system human"}
{"substance": "Maltotriose", "values": [{"measurement": "fold decrease in level between gingivitis and healthy", "setting": "G vs H", "value": 0.90, "unit": "fold"}, {"measurement": "fold decrease in level between periodontitis and healthy", "setting": "P vs H", "value": 0.59, "unit": "fold"}, {"measurement": "MEAN G (relative metabolite level)", "setting": "gingivitis sites (G), relative quantitated value adjusted for sample volume", "value": 1.22}, {"measurement": "MEAN H (relative metabolite level)", "setting": "healthy sites (H) of chronic periodontitis subjects, relative quantitated value adjusted for sample volume", "value": 1.35}, {"measurement": "MEAN P (relative metabolite level)", "setting": "periodontitis sites (P), relative quantitated value adjusted for sample volume", "value": 0.74}]}
